At least one structure is not confirmed: it was looked up by name or label, or the drawing left a doubt. Positions of bridges follow the written chain, without caps; N, C: chain ends. Non-standard residues stand in square brackets, D forms with d. Residues, ends and D or L forms follow the SMILES beside them.
These compounds were tested against T1, type 2 somatostatin receptors (SSTR2) (Homo sapiens, UniProt P30874) (assay: Somatostatin receptor binding assay on IMR32 membranes). Settings: read-out: Somatostatin Receptor Binding (IMR32 membranes) (Kd), competitive binding, 17° C., 30 minutes.
T1 construct: IMR32 membrane fractions (100-150 μg) were incubated with 0.015 pM; host or cells: IMR32 human neuroblastoma cells (membrane fractions)
Protocol: The IMR32 cells were maintained in minimal essential media (MEM) supplemented with 15% heat-inactivated fetal bovine serum, 100 U/ml penicillin, 100 μg/ml streptomycin and nonessential amino acids. Cultured cells were harvested in a buffer containing 20 mM HEPES, 2 mM MgCl2, 5 mM EDTA, 1 mM 2-mercaptoethanol, 150 mM NaCl, and 50 μg/ml phenylmethylsulfonylfluoride (PMSF), (pH 7.4) at a concentration of 1×10^6 cells/ml. Cell membranes were prepared according to the method of O'Dorisio, M. S. et al., Cell Growth and Differentiation, 5:1-8, 1994. Membrane fractions were prepared by differential centrifugation and the membranes resuspended in buffer and stored at -80° for receptor binding studies.
Binding assays were carried out according to the method of O'Dorisio et al., supra. […] The reaction was terminated by centrifugation at 11,000×G for 3 minutes. Supernatant fluid was aspirated and the radioactivity of bound ligand in the pellet quantified in a gamma counter.
Specific binding was calculated using the difference between total and non-specific (in the presence of 1 μM unlabeled ligand) binding. Equilibrium dissociation constants (KD) and the maximal number of binding sites (Bmax) were determined using seven concentrations of unlabeled peptide in a competitive binding curve and calculated using a computerized nonlinear least squares fit to the mass-law equation of Munson and Rodbard, Munson, P. J. et al., Anal. Biochem., 107:220-239, 1980, as modified by McPhearson, G. A., J. of Pharm. Meth., 14:213-228, 1985.

By UniProt entry, the sequences of proteins in these tests, tags left out. Where a name states a change or a piece, a line headed by the entry shows the natural chain unless it says otherwise.
UniProt P30874: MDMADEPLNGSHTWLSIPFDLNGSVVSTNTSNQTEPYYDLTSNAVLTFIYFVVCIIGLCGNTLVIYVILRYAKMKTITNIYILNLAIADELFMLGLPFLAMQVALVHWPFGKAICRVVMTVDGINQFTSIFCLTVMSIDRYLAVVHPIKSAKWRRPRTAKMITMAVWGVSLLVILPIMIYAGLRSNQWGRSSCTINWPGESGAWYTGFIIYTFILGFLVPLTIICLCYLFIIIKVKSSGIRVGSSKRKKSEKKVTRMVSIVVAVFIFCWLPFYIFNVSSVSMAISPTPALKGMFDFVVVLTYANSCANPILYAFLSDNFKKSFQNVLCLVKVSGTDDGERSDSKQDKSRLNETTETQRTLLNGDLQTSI

SMILES | Kd
CC(C)[C@@H]1NC(=O)[C@H](CCCCN)NC(=O)[C@@H](Cc2c[nH]c3ccccc23)NC(=O)[C@H](Cc2ccc(O)cc2)NC(=O)[C@@H](NC(=O)[C@@H](Cc2ccc(O)cc2)NC(=O)[C@H](C)NC(=O)[C@@H](N)Cc2ccc(O)cc2)CSSC[C@@H](C(=O)N[C@H](C(N)=O)[C@@H](C)O)NC1=O [WOC-3A, cyclic(tyrosine-alanine-D-tyrosine-cysteine-tyrosine-D-tryptophan-lysine-v aline-cysteine-threonine)] (H-YA[dY]CY[dW]KVCT-NH2; disulfide 4-9) | 1.93 ± 0.35 nM
CC(C)[C@@H]1NC(=O)[C@H](CCCCN)NC(=O)[C@@H](Cc2c[nH]c3ccccc23)NC(=O)[C@H](Cc2ccc(O)cc2)NC(=O)[C@@H](NC(=O)[C@@H](Cc2ccc(O)cc2)NC(=O)[C@@H](N)Cc2ccc(O)cc2)CSSC[C@@H](C(=O)N[C@H](C(N)=O)[C@@H](C)O)NC1=O [WOC-3B, cyclic(tyrosine-D-tyrosine-cysteine-tyrosine-D-tryptophan-lysine-valine-cy steine-threonine)] (H-Y[dY]CY[dW]KVCT-NH2; disulfide 3-8) | 1.14 ± 0.28 nM
C[C@@H](O)[C@H](NC(=O)[C@@H]1CSSC[C@H](NC(=O)[C@@H](Cc2ccccc2)NC(=O)[C@H](CCCCNC(=O)[C@H](CCCCNC(=O)[C@H](CCCCNC(=O)[C@H](N)Cc2ccc(O)cc2)NC(=O)[C@H](N)Cc2ccc(O)cc2)NC(=O)[C@H](CCCCNC(=O)[C@H](N)Cc2ccc(O)cc2)NC(=O)[C@H](N)Cc2ccc(O)cc2)NC(=O)[C@H](CCCCNC(=O)[C@H](CCCCNC(=O)[C@H](N)Cc2ccc(O)cc2)NC(=O)[C@H](N)Cc2ccc(O)cc2)NC(=O)[C@H](CCCCNC(=O)[C@H](N)Cc2ccc(O)cc2)NC(=O)[C@H](N)Cc2ccc(O)cc2)C(=O)N[C@@H](Cc2ccccc2)C(=O)N[C@H](Cc2c[nH]c3ccccc23)C(=O)N[C@@H](CCCCN)C(=O)N[C@@H]([C@@H](C)O)C(=O)N1)C(N)=O [WOC-8, cyclic[(D-tyrosine)8-(lysine)4-(lysine)2-lysine-cysteine-phenylalanine-D-tryptophan-lysine-threonine-cysteine-threonine]] | 0.69 ± 0.42 nM

From US5597894A (The Louisiana State University Medical Center Foundation, priority 1995, dated 1997)
